Laboratory results taken from paper doi:10.1101/2020.08.27.268672 (bioRxiv, 2020).
No constants are given. Whether binding was seen depends on the method and setting. Some binding calls cover weakened binding; strength is not graded here. Sequences can lack the tags named with a protein.

Target: DarB fused to the T18 or T25 domain of CyaA (Bacillus subtilis 168) (UniProt O31698)
Assay: two-hybrid

B1: DarB fused to the T18 or T25 domain of CyaA (protein, UniProt O31698 2-147)
chain: ISLQSDQLLEATVGQFMIEADKVAHVQVGNNLEHALLVLTKTGYTAIPVLDPSYRLHGLIGTNMIMNSIFGLERIEFEKLDQITVEEVMLTDIPRLHINDPIMKGFGMVINNGFVCVENDEQVFEGIFTRRVVLKELNKHIRSLNK
binding: binds
